Measured values from patent publication US10640547B2, “Immunotherapy against melanoma and other cancers” (IMMATICS BIOTECHNOLOGIES GMBH, priority 2016, dated 2020).

System: HLA molecules of melanoma, other tumor and normal tissue samples
Experiment: Identification and relative quantitation of tumor associated peptides presented on the cell surface (HLA immunoprecipitation, label-free LC-MS)
Parameters: species or system human; key to Peptide Presentation (presentation score): very highly over-presented on tumors compared to a panel of normal tissues (+++); highly over-presented on tumors compared to a panel of normal tissues (++); over-presented on tumors compared to a panel of normal tissues (+)
Conditions: for Peptide Presentation (presentation score): over-presentation on tumors compared to a panel of normal tissues; for Additional Entities (additional tumor types on which the peptide was found) / relevant organs/diseases (additional tumor types on which the peptide was found): over-presented on more than 5% of the measured tumor samples, or presented on more than 5% with ratio of geometric means tumor vs normal tissues larger than 3

| Substance | Peptide Presentation (presentation score) | Additional Entities (additional tumor types on which the peptide was found) | relevant organs/diseases (additional tumor types on which the peptide was found) |
| --- | --- | --- | --- |
| 1 (FLDVKELML; listed as Homo sapiens) [compound 1] | +++ | Brain Cancer, OC | RCC, HCC, Uterine Cancer, Gallbladder Cancer, Bile Duct Cancer |
| 2 (VLLGENVEL; listed as Homo sapiens) [compound 2] | +++ |  | NHL, BRCA |
| 3 (VLFKDPVSV; listed as Homo sapiens) [compound 3] | +++ |  |  |
| 4 (KTWDQVPFSV; listed as Homo sapiens) [compound 4] | +++ |  |  |
| 5 (ILDEGHILQL; listed as Homo sapiens) [compound 5] | +++ |  |  |
| 6 (SIPDTIASV; listed as Homo sapiens) [compound 6] | +++ |  |  |
| 7 (NLQEKVPEL; listed as Homo sapiens) [compound 7] | +++ | HNSCC | PC, AML, BRCA, Uterine Cancer |
| 8 (SIIPYLLEA; listed as Homo sapiens) [compound 8] | +++ | HCC, CLL, NHL, HNSCC | Uterine Cancer |
| 9 (SLAGLVLYV; listed as Homo sapiens) [compound 9] | +++ |  |  |
| 10 (KMTQYITEL; listed as Homo sapiens) [compound 10] | +++ |  | Brain Cancer |
| 11 (TLIELLLPKL; listed as Homo sapiens) [compound 11] | +++ |  | CLL |
| 13 (IQSETTVTV; listed as Homo sapiens) [compound 13] | ++ | HNSCC |  |
| 14 (VLYEMLYGL; listed as Homo sapiens) [compound 14] | +++ | HNSCC |  |
| 15 (VLYDPVVGC; listed as Homo sapiens) [compound 15] |  | HNSCC | CLL, NHL, AML, Uterine Cancer |
| 16 (GLFPSNFVTA; listed as Homo sapiens) [compound 16] |  | CLL, BRCA, AML |  |
| 17 (GVVHGVATV; listed as Homo sapiens) [compound 17] | ++ | NHL | AML, Urinary bladder cancer |
| 18 (SLADVVDTL; listed as Homo sapiens) [compound 18] | + |  | Brain Cancer, CLL, NHL, Uterine Cancer |
| 19 (VLAVLGAVVAV; listed as Homo sapiens) [compound 19] | +++ | HCC, CLL, HNSCC | SCLC, RCC, BRCA, Uterine Cancer |
| 20 (VISPHGIASV; listed as Homo sapiens) [compound 20] | +++ | Esophageal Cancer, HNSCC | Brain Cancer, Uterine Cancer |
| 21 (FMYNFQLVTL; listed as Homo sapiens) [compound 21] | ++ |  | SCLC, Urinary bladder cancer |
| 22 (KLLELQELVL; listed as Homo sapiens) [compound 22] | ++ | HNSCC |  |
| 23 (FLGDPPPGL; listed as Homo sapiens) [compound 23] |  | Gallbladder Cancer, Bile Duct Cancer, HNSCC | CLL, NHL, AML, BRCA, Urinary bladder cancer, Uterine Cancer |
| 24 (SLVAILHLL; listed as Homo sapiens) [compound 24] | ++ | NSCLC, OC, HNSCC | NHL, Gallbladder Cancer, Bile Duct Cancer |
| 26 (KIEDLIKYL; listed as Homo sapiens) [compound 26] | +++ |  |  |
| 27 (TLWYVPLSL; listed as Homo sapiens) [compound 27] | ++ | HNSCC | CLL, NHL, AML, Uterine Cancer |
| 28 (IVDNTTMQL; listed as Homo sapiens) [compound 28] | + | GC, AML |  |

| Substance | Peptide Presentation (presentation score) | Additional Entities (additional tumor types on which the peptide was found) | relevant organs/diseases (additional tumor types on which the peptide was found) |
| --- | --- | --- | --- |
| 29 (ILDDVAMVL; listed as Homo sapiens) [compound 29] |  |  | CLL, NHL |
| 30 (VLFPMDLAL; listed as Homo sapiens) [compound 30] | +++ | HNSCC | RCC |
| 31 (FLPRKFPSL; listed as Homo sapiens) [compound 31] | ++ | HNSCC | NSCLC, CRC, CLL, NHL, Esophageal Cancer, OC, Urinary bladder cancer, Uterine Cancer |
| 32 (GLDIITNKV; listed as Homo sapiens) [compound 32] | ++ |  | NHL |
| 33 (SLYSYFQKV; listed as Homo sapiens) [compound 33] | +++ |  |  |
| 34 (YLINFEIRSL; listed as Homo sapiens) [compound 34] | +++ |  |  |
| 35 (ALFAAGANV; listed as Homo sapiens) [compound 35] | +++ |  |  |
| 36 (SVNGFISTL; listed as Homo sapiens) [compound 36] | +++ |  | AML |
| 37 (TLKEYLESL; listed as Homo sapiens) [compound 37] | +++ | HCC, Esophageal Cancer |  |
| 39 (ALPPPPASI; listed as Homo sapiens) [compound 39] | +++ |  |  |
| 40 (LLSNTVSTL; listed as Homo sapiens) [compound 40] | +++ |  |  |
| 41 (LLDDPTNAHFI; listed as Homo sapiens) [compound 41] | +++ |  |  |
| 43 (LLPDPLYSL; listed as Homo sapiens) [compound 43] | +++ |  |  |
| 45 (FVYGEPREL; listed as Homo sapiens) [compound 45] | +++ |  |  |
| 46 (VMSSTLYTV; listed as Homo sapiens) [compound 46] | +++ |  |  |
| 47 (ALDSDPVGL; listed as Homo sapiens) [compound 47] | +++ |  |  |
| 48 (HLIGWTAFL; listed as Homo sapiens) [compound 48] | +++ |  |  |
| 49 (ALLSQDFEL; listed as Homo sapiens) [compound 49] | +++ |  |  |
| 51 (LIDKIIEYL; listed as Homo sapiens) [compound 51] | +++ |  |  |
| 52 (NLDYAILKL; listed as Homo sapiens) [compound 52] | +++ |  |  |
| 53 (ILDEEKFNV; listed as Homo sapiens) [compound 53] | +++ |  |  |
| 54 (LLDSGAFHL; listed as Homo sapiens) [compound 54] | +++ |  |  |
| 56 (ILDELVKSL; listed as Homo sapiens) [compound 56] | +++ |  |  |
| 57 (GILSFLPVL; listed as Homo sapiens) [compound 57] | +++ |  | CLL, NHL |
| 58 (ILGDWSIQV; listed as Homo sapiens) [compound 58] | +++ | HNSCC |  |
